Measurements published in article PMC8163974.
These are yes or no findings as the source states them, for the method shown. In cells and extracts the contact can be indirect. Some binding calls cover weakened binding; strength is not graded here.

Amino acid sequences for entries named in this document (tags omitted). A change or cut given only in a name is not applied to a line headed by its entry. Chains listed by the source or under a name are the forms on record and can include a tag or linker.
UniProt Q14494: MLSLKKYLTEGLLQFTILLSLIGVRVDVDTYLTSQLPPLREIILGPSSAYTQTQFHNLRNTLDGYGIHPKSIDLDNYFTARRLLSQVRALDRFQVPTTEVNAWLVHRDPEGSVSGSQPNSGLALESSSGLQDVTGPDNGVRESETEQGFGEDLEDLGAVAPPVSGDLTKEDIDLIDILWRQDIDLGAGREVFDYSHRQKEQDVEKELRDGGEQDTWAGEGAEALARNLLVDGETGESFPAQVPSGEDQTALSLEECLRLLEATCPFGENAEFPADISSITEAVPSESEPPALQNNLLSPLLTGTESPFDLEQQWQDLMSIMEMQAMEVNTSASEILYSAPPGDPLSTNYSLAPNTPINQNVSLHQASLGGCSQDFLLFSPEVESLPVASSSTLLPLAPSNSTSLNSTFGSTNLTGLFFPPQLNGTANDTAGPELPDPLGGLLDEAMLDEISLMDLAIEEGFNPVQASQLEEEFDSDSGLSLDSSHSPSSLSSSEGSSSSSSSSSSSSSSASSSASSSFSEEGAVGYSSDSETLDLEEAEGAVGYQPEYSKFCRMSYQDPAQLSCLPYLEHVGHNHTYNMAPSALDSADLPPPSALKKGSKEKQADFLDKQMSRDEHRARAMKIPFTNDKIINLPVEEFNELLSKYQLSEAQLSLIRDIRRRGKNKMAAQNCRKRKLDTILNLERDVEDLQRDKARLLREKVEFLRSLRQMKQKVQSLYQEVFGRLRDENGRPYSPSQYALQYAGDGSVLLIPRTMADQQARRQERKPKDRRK
V5-tagged Nrf1a (Q14494, form named): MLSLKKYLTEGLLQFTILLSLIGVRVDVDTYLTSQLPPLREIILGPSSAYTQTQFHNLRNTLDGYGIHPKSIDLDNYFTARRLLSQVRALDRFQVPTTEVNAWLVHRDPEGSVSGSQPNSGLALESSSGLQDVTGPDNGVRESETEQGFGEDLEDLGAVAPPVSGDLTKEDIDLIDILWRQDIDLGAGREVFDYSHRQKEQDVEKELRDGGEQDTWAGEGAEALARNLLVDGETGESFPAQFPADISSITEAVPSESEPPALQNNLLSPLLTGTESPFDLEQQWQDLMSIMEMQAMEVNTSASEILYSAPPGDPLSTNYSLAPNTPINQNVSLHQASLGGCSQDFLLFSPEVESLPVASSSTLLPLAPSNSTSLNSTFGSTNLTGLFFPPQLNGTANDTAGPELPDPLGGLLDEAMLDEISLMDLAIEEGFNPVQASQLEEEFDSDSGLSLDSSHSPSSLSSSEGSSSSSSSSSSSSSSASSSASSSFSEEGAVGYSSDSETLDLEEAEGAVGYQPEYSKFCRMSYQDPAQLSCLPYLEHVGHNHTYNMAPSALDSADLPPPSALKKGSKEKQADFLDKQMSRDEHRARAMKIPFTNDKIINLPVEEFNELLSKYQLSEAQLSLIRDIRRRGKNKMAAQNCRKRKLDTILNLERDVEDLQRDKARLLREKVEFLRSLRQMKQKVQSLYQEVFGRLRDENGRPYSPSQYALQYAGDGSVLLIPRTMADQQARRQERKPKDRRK
UniProt Q93009: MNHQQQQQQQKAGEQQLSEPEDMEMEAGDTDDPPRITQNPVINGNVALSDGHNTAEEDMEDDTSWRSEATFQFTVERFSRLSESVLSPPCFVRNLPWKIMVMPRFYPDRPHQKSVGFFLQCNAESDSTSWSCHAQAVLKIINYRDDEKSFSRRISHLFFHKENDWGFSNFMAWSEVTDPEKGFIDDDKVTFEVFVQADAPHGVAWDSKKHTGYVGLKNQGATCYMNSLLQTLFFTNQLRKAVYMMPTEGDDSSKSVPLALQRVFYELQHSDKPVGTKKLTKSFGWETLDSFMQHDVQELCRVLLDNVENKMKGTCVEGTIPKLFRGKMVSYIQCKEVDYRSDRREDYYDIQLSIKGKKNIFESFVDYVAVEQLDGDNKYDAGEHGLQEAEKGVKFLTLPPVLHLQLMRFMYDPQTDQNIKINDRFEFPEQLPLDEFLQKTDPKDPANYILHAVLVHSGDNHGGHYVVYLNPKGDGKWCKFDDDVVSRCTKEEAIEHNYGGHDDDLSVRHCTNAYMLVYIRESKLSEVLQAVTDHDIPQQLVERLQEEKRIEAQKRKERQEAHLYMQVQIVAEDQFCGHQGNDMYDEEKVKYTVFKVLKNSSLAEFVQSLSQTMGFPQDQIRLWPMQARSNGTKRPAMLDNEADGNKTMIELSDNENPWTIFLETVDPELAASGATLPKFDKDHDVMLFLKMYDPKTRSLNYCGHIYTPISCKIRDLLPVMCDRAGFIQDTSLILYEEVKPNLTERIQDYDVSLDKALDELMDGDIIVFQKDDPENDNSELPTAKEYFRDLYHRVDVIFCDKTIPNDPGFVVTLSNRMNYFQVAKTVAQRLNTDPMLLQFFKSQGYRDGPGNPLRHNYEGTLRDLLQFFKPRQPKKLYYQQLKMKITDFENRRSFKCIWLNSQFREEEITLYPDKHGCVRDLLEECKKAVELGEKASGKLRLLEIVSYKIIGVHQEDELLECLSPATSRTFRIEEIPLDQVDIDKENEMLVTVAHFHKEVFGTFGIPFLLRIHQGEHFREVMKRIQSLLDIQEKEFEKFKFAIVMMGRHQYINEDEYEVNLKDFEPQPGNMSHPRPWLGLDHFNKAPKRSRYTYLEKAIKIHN

Experiments:
[1] = molecular target: V5-tagged Nrf1a (UniProt Q14494); test: co-IP; cells transfected with increasing amounts of TCF11-V5 or Nrf1a-V5 (0, 2, 4 ug); lysis in 2% SDS buffer, diluted 5-fold; anti-V5 IP overnight at 4 C, protein-G Sepharose, RIPA washes; blot with anti-USP7
[2] = molecular target: V5-tagged TCF11 (UniProt Q14494); test: as above

“endogenous USP7 (ubiquitin specific protease 7) (from UniProt Q93009 1-1102) (enzyme)” was tested, and the binding [1] was “binds” and the binding [2] was “binds”.
